In paper PMC7296666:
Results are given in words; binding and its absence hold for the method and conditions named. Binding seen in cells or lysates may run through a third protein. Some binding calls cover weakened binding; strength is not graded here. Tags and fused reporters may be left off the sequences shown.

The chains behind the UniProt entries cited, without tags or fusion partners. Residues count along the entry.
UniProt P40189, residues 23-918: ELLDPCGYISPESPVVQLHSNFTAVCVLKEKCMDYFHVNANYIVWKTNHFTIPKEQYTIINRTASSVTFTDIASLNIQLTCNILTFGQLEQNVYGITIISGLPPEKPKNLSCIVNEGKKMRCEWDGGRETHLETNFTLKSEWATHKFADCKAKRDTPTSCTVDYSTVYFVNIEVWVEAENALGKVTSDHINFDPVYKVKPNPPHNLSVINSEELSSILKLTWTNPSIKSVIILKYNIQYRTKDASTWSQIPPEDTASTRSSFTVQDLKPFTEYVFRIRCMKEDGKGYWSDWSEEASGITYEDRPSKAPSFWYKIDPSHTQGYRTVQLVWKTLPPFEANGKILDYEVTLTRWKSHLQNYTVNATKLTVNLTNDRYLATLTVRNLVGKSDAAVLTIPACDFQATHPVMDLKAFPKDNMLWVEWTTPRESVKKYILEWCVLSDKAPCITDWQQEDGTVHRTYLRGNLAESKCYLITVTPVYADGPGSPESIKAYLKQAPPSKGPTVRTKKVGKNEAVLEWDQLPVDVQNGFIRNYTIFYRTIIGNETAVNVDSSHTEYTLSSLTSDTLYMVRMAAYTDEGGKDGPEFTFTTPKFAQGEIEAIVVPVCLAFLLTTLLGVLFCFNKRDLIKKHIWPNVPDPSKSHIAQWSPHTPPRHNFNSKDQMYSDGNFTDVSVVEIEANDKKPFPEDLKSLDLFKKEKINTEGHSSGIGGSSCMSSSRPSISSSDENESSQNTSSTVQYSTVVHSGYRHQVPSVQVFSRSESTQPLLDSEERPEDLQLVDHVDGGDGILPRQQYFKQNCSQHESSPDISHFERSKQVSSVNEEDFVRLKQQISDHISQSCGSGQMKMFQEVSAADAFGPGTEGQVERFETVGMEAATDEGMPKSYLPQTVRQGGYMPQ
UniProt P08887, residues 20-468: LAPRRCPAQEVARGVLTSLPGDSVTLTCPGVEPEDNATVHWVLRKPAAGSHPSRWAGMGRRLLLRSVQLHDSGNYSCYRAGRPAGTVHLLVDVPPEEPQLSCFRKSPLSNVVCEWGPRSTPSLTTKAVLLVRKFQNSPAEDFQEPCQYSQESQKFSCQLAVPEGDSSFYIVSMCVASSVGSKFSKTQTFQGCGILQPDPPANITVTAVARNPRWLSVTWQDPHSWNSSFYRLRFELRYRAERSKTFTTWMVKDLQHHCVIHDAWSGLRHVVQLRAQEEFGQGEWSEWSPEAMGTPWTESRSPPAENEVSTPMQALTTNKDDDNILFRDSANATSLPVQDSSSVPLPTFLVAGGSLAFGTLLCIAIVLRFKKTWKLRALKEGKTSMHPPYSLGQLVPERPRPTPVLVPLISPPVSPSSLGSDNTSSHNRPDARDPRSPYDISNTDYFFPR

How the values were obtained:
[1] = target: T1, Flag-FBXO2 WT (UniProt Q9UK22); assay: co-IP; 293T cells transfected with EV, Flag-FBXO2 WT or MUT for 36 h; lysis buffer 150 mM Tris-HCl pH 7.5, 150 mM NaCl, 0.5% Nonidet P40; IP with Flag M2 beads overnight at 4 °C; blots for IL6Ra and IL6ST
T1 sequence: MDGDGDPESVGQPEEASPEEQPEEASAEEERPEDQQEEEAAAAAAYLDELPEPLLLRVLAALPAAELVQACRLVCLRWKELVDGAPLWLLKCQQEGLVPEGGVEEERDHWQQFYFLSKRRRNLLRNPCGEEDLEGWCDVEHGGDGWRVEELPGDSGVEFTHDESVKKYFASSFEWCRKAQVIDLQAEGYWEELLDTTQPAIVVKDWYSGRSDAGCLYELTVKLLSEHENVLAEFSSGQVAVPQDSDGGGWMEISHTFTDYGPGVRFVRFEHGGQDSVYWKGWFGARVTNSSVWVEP

[2] = target: T2, GST-FBXO2 (UniProt Q9UK22); assay: pull-down; GST or GST-FBXO2 on glutathione-Sepharose beads; reaction buffer 200 mM NaCl, 50 mM HEPES pH 7.5, 1 mM MgCl2, 0.2% Triton X-100, 0.2 mg/ml BSA; 1 mg Flag-IL6ST or Flag-IL6Ra-transfected cell lysate added, 1 h; immunoblot; only the target purified
T2 sequence: T1 sequence

binding [1]	binding [2]	Substance
binds	–	IL6ST (endogenous, 293T) (from UniProt P40189 23-918) (receptor)
–	no binding	Flag-IL6Ra (from UniProt P08887 20-468) (receptor)
–	binds	Flag-IL6ST (from UniProt P40189 23-918) (receptor)
